Test results from PubChem BioAssay AID445 (National Center for Advancing Translational Sciences (NCATS), 2006).
Some of the results follow. Further columns of the screen follow, without active or inactive calls. Compounds called inactive in the main read-out are mostly missing here. The note in brackets gives the kind of curve behind each potency; many fits are weak.

Assay: IkB Signaling
Conditions: ABC-DLBCL IkBa-CBG/CBR dual luciferase ratio (green luciferase fused to IkBa over red control in OCI-Ly3 lymphoma cells), 4 h
Outline: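 Luminescence ratio of IκBα-fused green versus native red beetle luciferase in OCI-Ly3 cells, 4 h post-doxycycline with compound; red signal alone, scaled from basal (0%) to zero light (-100%), flagged nonspecific or cytotoxic effects.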

[1] = measured here: control luc red channel unless noted
[2] = measured here: IkB-luc green channel
[3] = measured here: control luc red channel

Question: Which AC50 [1] does the source give for `Cc1cn2c(=O)cc(COC(=O)c3ccc(NC(=O)C(C)Oc4ccccc4)cc3)nc2s1` (stereo not given) here?
Answer: 39.8 µM [falling, single point]

Question: With `O=C(Nc1cc(Cl)cc(Cl)c1)c1cc(S(=O)(=O)N2CCC3(CC2)OCCO3)ccc1F` as the molecule, how does the AC50 [1] read?
Answer: 15.8 µM [falling, partial curve]

Question: Which AC50 [1] does the source give for `COc1cccc(NC(=O)Cc2csc(COc3cccc(C)c3)n2)c1` here?
Answer: 25.1 µM [falling, partial curve]

Question: Which AC50 [1] does the source give for `CCOc1ccccc1N1CCN(C(=O)Nc2cccc(Cl)c2)CC1` here?
Answer: 25.1 µM [falling, single point]

Question: With `Cc1ccc(-c2ccc(CCC(=O)O)n2-c2cccc(C)c2C)cc1` as the molecule, how does the AC50 [1] read?
Answer: 15.8 µM [falling, partial curve]

Question: For `Cc1ccc(C)c(N2CCN(C(=O)CN3C(=O)COc4ccc(S(=O)(=O)N5CCC(C)CC5)cc43)CC2)c1`, which AC50 [1] is on record?
Answer: 12.6 µM [falling, partial curve]

Question: With `CCOc1ccc(Br)cc1S(=O)(=O)Nc1cccc(-c2ccc(OC)nn2)c1` as the molecule, how does the AC50 [1] read?
Answer: 15.8 µM [falling, single point]

Question: With `O=c1[nH]c(=O)n([C@H]2C[C@H](O)[C@@H](CO)O2)cc1Br` as the molecule, how does the AC50 [2] read?
Answer: 5.01 µM [rising, partial curve, poor fit]

Question: What about the AC50 [3] of the same molecule?
Answer: 3.16 µM [rising, partial curve, poor fit]

Question: With `Cc1ccc(Cl)cc1N1CCN(C(=O)c2ccc3c(c2)N(Cc2ccccc2)CCS3)CC1` as the molecule, how does the AC50 [1] read?
Answer: 15.8 µM [falling, partial curve]

Question: For `COc1ccccc1CNc1nc2nc(C)c(Cl)c(=O)n2[nH]1`, which AC50 [1] is on record?
Answer: 7.94 µM [falling, partial curve]

Question: Which AC50 [1] does the source give for `O=C(CSc1nc(=O)n(Cc2ccco2)c2c1CCC2)NCc1ccc(Cl)cc1` here?
Answer: 20 µM [falling, partial curve]

Question: Which AC50 [1] does the source give for `Cc1ccc(NC(=O)CCn2c(=O)c3cccn3c3ccccc32)cc1Cl` here?
Answer: 25.1 µM [falling, single point]

Question: For `COc1cc(OC)c(NC(=O)Cn2cnc3sc(C)c(S(=O)(=O)N4CCC(C)CC4)c3c2=O)cc1Cl`, which AC50 [1] is on record?
Answer: 3.98 µM [falling, full curve]

Question: With `COc1ccc2c(c1)sc1nc(-c3ccccc3)cn12` as the molecule, how does the AC50 [2] read?
Answer: 3.16 µM [rising, partial curve]

Question: And the AC50 [3]?
Answer: 3.16 µM [falling, full curve]

Question: With `Cc1cc(C)c2nc(N(Cc3cccnc3)C(=O)Cc3ccccc3)sc2c1` as the molecule, how does the AC50 [1] read?
Answer: 25.1 µM [falling, partial curve]

Question: Which AC50 [1] does the source give for `Cc1ccc(C(=O)N2CCN(Cc3cc(=O)n4nc(-c5ccccc5)sc4n3)CC2)cc1` here?
Answer: 3.16 µM [falling, full curve, poor fit]

Question: With `Cc1cc(NC(=O)Nc2nnc(N3CCCCC3)s2)ccc1Br` as the molecule, how does the AC50 [1] read?
Answer: 31.6 µM [falling, single point]

Question: With `COc1ccccc1CNC(=O)CSc1nc(=O)[nH]c2c1CCCC2` as the molecule, how does the AC50 [1] read?
Answer: 3.16 µM [falling, partial curve]

Question: Which AC50 [1] does the source give for `COc1cccc(-c2nc(CS(=O)(=O)CC(=O)NCCc3ccc(Cl)cc3)c(C)o2)c1` here?
Answer: 1.26 µM [falling, partial curve, poor fit]

Question: For `Cc1ccc(-n2ncc3c(Nc4cccc(C(F)(F)F)c4)ncnc32)cc1C`, which AC50 [1] is on record?
Answer: 3.16 µM [falling, full curve]

Question: Which AC50 [1] does the source give for `CC1CCCCN1C(=O)CSc1c2c(nc3cc(Cl)ccc13)CCCC2` (stereo not given) here?
Answer: 25.1 µM [falling, single point]

Question: For `CCOCCn1c(=O)c2c(nc3n2CCN3c2ccc(C)c(C)c2)n(C)c1=O`, which AC50 [1] is on record?
Answer: 31.6 µM [falling, single point]

Question: Which AC50 [1] does the source give for `CC(C)c1ccc(NC(=O)c2cnc3sc(N4CCOCC4)nn3c2=O)cc1` here?
Answer: 39.8 µM [falling, single point]

Question: For `COc1ccc(NC(=O)CN(C)S(=O)(=O)c2ccc3c(c2)c(=O)n(C)c(=O)n3C)cc1`, which AC50 [1] is on record?
Answer: 7.94 µM [falling, partial curve]

Question: With `COc1ccc(OC)c(NC(=O)Cn2cnc3onc(-c4ccc(Cl)cc4)c3c2=O)c1` as the molecule, how does the AC50 [1] read?
Answer: 0.2 µM [falling, full curve]

Question: For `COc1ccc(-c2nc3ccc(Cl)cn3c2Nc2ccc(C)cc2)cc1`, which AC50 [1] is on record?
Answer: 15.8 µM [falling, single point]

Question: For `CCCCNC(=O)c1cn(C)c2ccc(S(=O)(=O)N3CCCC3)cc2c1=O`, which AC50 [1] is on record?
Answer: 2.51 µM [falling, full curve]

Question: Which AC50 [1] does the source give for `Cc1ccc(C(=O)NCC(c2ccco2)S(=O)(=O)c2ccc(Cl)cc2)cc1C` (stereo not given) here?
Answer: 10 µM [falling, partial curve]

Question: For `COc1cccc(-c2csc(-c3c(N)c(C(=O)c4ccc5c(c4)OCO5)n4ccccc34)n2)c1`, which AC50 [1] is on record?
Answer: 5.01 µM [falling, partial curve]

Question: With `CCOc1ccc(C2C(C(=O)Nc3ccccc3)=C(C)Nc3nc(-c4ccccc4)nn32)cc1OC` (stereo not given) as the molecule, how does the AC50 [1] read?
Answer: 20 µM [falling, single point]

Question: For `CCCCn1c(SCc2nnc(-c3ccccc3)o2)nc2c1c(=O)n(C)c(=O)n2C`, which AC50 [1] is on record?
Answer: 39.8 µM [falling, partial curve]

Question: With `Cc1cc(C)n(CCc2nc3c4ccccc4nc(SCc4ccc(F)cc4)n3n2)n1` as the molecule, how does the AC50 [1] read?
Answer: 0.00631 µM [rising, full curve, poor fit]

Question: Which AC50 [1] does the source give for `Cc1ccc(CNC(=O)c2c[nH]c3ccc(S(=O)(=O)N4CCOCC4)cc3c2=O)cc1` here?
Answer: 0.501 µM [rising, full curve]

Question: Which AC50 [1] does the source give for `COc1cc(NC(=O)Nc2ccccc2OC)c(OC)cc1NC(=O)CN1CCCCC1` here?
Answer: 0.0794 µM [falling, full curve]

Question: With `CC(C)c1nn2c(=O)cc(COC(=O)C3CCCCC3)nc2s1` as the molecule, how does the AC50 [1] read?
Answer: 6.31 µM [rising, single point]

Question: For `Cc1ccc(NC(=O)c2ccc3ccccc3n2)nc1`, which AC50 [1] is on record?
Answer: 12.6 µM [falling, partial curve]

Question: With `COc1ccc(OCc2cccc(C(=O)O)c2)cc1` as the molecule, how does the AC50 [1] read?
Answer: 0.251 µM [falling, full curve]

Question: Which AC50 [1] does the source give for `Cc1ccc(CN(Cc2ccco2)C(=O)c2ccccc2Br)o1` here?
Answer: 25.1 µM [falling, single point]

Question: With `Cc1cc(Br)cc(C)c1NC(=O)c1sc2ncn(Cc3cccc(F)c3)c(=O)c2c1C` as the molecule, how does the AC50 [1] read?
Answer: 0.631 µM [falling, full curve]

Question: With `Cc1ccccc1N1C(=O)c2cccc3c(N(C)CCO)ccc(c23)C1=O` as the molecule, how does the AC50 [1] read?
Answer: 25.1 µM [falling, partial curve]

Question: For `Cn1c(=O)c2c(nc(CN3CCc4ccccc4C3)n2Cc2cccc(Cl)c2)n(C)c1=O`, which AC50 [1] is on record?
Answer: 10 µM [falling, partial curve]

Question: Which AC50 [1] does the source give for `Cc1ccc(-n2cnc3cc(C(=O)NCCC4=CCCCC4)ccc32)c(C)c1` here?
Answer: 39.8 µM [falling, single point]

Question: With `Cc1ccc(-c2cc3c(nn2)-c2ccccc2C3=O)cc1` as the molecule, how does the AC50 [1] read?
Answer: 3.98 µM [falling, full curve]

Question: Which AC50 [1] does the source give for `CCC(c1nnnn1CS(=O)(=O)c1ccc(C)cc1)N1CCN(c2nc3ccccc3s2)CC1` (stereo not given) here?
Answer: 25.1 µM [falling, partial curve]

Question: With `CCc1ccc(NC(=O)c2sc(-n3nc(C)c(CCC(C)C)c3C)nc2C)cc1` as the molecule, how does the AC50 [1] read?
Answer: 0.631 µM [falling, full curve, poor fit]

Question: Which AC50 [1] does the source give for `COc1ccc(OCc2ccc(C(=O)O)cc2)cc1` here?
Answer: 10 µM [falling, partial curve]

Question: For `COc1ccc(NC(=O)c2ccc3oc(=O)c(S(=O)(=O)c4ccc(F)cc4)cc3c2)cc1OC`, which AC50 [2] is on record?
Answer: 5.01 µM [rising, full curve]

Question: And the AC50 [3]?
Answer: 6.31 µM [falling, partial curve]

Question: Which AC50 [1] does the source give for `Cc1c(C(=O)Nc2ccc(F)cc2F)oc2c1-c1nn(Cc3c(F)cccc3Cl)cc1CC2` here?
Answer: 31.6 µM [falling, single point]

Question: With `O=C(NC1CC(=O)N(c2ccc(F)cc2)C1)C1CCCC1` (stereo not given) as the molecule, how does the AC50 [1] read?
Answer: 3.16 µM [rising, partial curve]

Question: Which AC50 [1] does the source give for `COc1ccc(C)cc1NC(c1nnc(-c2ccccc2)o1)c1ccc(F)cc1Cl` (stereo not given) here?
Answer: 5.01 µM [falling, partial curve, poor fit]

Question: For `O=C(CN1CCN(C(=O)c2ccco2)CC1)Nc1ccc(Cl)c(C(F)(F)F)c1`, which AC50 [1] is on record?
Answer: 12.6 µM [falling, partial curve]

Question: Which AC50 [1] does the source give for `CCc1ccc(N2CC(c3nnc(NC(=O)c4ccco4)s3)CC2=O)cc1` (stereo not given) here?
Answer: 12.6 µM [falling, partial curve]

Question: For `CCOC(=O)c1nnn(-c2nonc2N)c1CNc1ccc(C)c(Br)c1`, which AC50 [1] is on record?
Answer: 20 µM [falling, partial curve]

Question: With `COc1ccccc1NC(=O)CSc1oc(-c2ccco2)nc1S(=O)(=O)c1ccc(C)cc1` as the molecule, how does the AC50 [1] read?
Answer: 0.316 µM [falling, full curve]

Question: For `CCOc1ccc(NC(=O)c2oc3ccccc3c2NC(=O)C(C)(C)C)cc1`, which AC50 [1] is on record?
Answer: 31.6 µM [falling, single point]

Question: With `Cc1nn(-c2cccc(Cl)c2)c2c1C(c1cccnc1)C(C#N)=C(N)O2` (stereo not given) as the molecule, how does the AC50 [1] read?
Answer: 39.8 µM [falling, single point]

Question: For `O=C(CC1N=C2c3ccccc3N=C(SCC(=O)Nc3ccc(F)cc3)N2C1=O)NCc1ccco1` (stereo not given), which AC50 [1] is on record?
Answer: 12.6 µM [falling, partial curve]

Question: Which AC50 [1] does the source give for `CS(=O)(=O)Nc1cccc(-c2ccc3ncnc(N4CCOCC4)c3c2)c1` here?
Answer: 3.98 µM [rising, partial curve]

Question: For `Cc1ccc(C(=O)Nc2nnc(S(=O)(=O)N(C)Cc3ccc(Cl)cc3)s2)cc1`, which AC50 [1] is on record?
Answer: 2 µM [falling, full curve]

Question: With `COc1cc(Nc2ncc3c(n2)CCN(Cc2ccc(OC(C)C)c(OC)c2)C3)cc(OC)c1` as the molecule, how does the AC50 [1] read?
Answer: 39.8 µM [falling, partial curve]

Question: With `CCc1nn2c(=O)cc(COC(=O)c3ccc(NC(=O)COc4ccccc4C)cc3)nc2s1` as the molecule, how does the AC50 [1] read?
Answer: 7.94 µM [rising, single point]

Question: Which AC50 [1] does the source give for `Cc1ccc(-c2nnc3n2N=C(c2ccccc2Br)CS3)cc1` here?
Answer: 39.8 µM [falling, single point]
